From PMC5573678 come the findings set out here.

The target in experiment [1] is T1, HA-tagged AIM2 (AIM2HA), transiently expressed in HEK293T cells (UniProt Q91VJ1).
T1 sequence: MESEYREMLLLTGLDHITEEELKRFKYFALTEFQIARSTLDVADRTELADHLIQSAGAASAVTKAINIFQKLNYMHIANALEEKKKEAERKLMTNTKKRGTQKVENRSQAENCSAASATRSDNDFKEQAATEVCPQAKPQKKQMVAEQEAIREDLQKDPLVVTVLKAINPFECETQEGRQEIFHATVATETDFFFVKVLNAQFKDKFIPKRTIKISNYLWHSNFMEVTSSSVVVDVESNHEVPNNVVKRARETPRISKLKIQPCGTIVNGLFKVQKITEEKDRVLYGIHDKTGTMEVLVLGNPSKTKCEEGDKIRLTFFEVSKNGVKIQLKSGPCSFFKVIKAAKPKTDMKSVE
The experiment in a line: co-IP; as a1, but IFI205myc, AIM2HA and STING-FLAG all three coexpressed in HEK293T cells; IP with anti-HA or anti-FLAG agarose beads; Western blot. On the technique in general: Immunoblotting shows a protein as a band on a membrane.

Experiment [2] has as its target T1, HA-tagged AIM2 (AIM2HA), transiently expressed in HEK293T cells. The experiment in a line: co-IP; HEK293T cells cotransfected with two of the tagged proteins, lysed 48 h after transfection in RIPA buffer (50 mM Tris pH 7.4, 150 mM NaCl, 1 mM EDTA, 1% Triton X-100, 1% deoxycholate, 0.1% SDS); IP with anti-HA or anti-FLAG agarose beads at 4°C overnight; Western blot.

Experiment [3] deals with T2, endogenous AIM2 of NR9456 macrophages (mouse (endogenous in NR9456)) (UniProt Q91VJ1).
T2 sequence: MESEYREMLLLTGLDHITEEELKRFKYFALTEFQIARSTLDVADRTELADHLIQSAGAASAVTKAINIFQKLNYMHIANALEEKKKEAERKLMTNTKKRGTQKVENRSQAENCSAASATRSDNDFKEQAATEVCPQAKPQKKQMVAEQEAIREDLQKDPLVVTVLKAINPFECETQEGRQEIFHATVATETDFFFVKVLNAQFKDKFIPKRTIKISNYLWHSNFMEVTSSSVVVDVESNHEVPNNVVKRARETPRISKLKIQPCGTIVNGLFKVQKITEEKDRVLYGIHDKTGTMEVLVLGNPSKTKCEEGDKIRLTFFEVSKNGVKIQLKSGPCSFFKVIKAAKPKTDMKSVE
The experiment in a line: proximity ligation; Duolink in situ PLA in NR9456-IFI205myc or NR9456 cells, fixed with 4% paraformaldehyde and permeabilised with 0.5% Triton X-100; anti-myc, anti-AIM2 and anti-STING primary antibodies; also after siRNA knockdown of Trex1, Aim2 or Ifi205.

Results are given in words; binding and its absence hold for the method and conditions named. In cells and extracts the contact can be indirect. Some entries that bind do so weakly or less than the wild type. Sequences can lack the tags named with a protein.

B1: myc-tagged IFI205 (IFI205myc), transiently expressed in HEK293T cells (protein, UniProt Q8CGE8 1-404)
chain: MENEYKRLVLLEGLECINKHQFNLFKSLMVKDLNLEEDNQEKYTTFQIANMMVKKFPADAGLDRLINFCERVPTLKKRAEILKKERSEVTEETSLEINRQEASPATPTSTTSHMLASERGKTSTTQEETSTAQKRKGMSEEKTDVKKIKASGKADQPPCCEGPTATCQSPISQVSSSASSNIPSAKNQKSQPQNQNIPRGAVLHSEPLTVMVLTATDPFEYESPEHEVKNMFHATVATVSQYFHVKVFNIDLKEKFTKNNFITISNYFESKGILEINETSSVLEAAPKQMIEVPNCITRNANASPKICDIQKGTSGTVFYGVFTLHKKKVKTQNTSYEIKDGSGSIEVVGSGQWHNINCKEGDKLHLFCFHLKRERGQPKLVCGDHSFVKVTKAGKKKEASTVQ
On to B1, for which the binding result in experiment [1] and in experiment [2] was “binds” throughout.

B2: myc-tagged IFI205 (IFI205myc), stably expressed in NR9456 macrophages (protein, UniProt Q8CGE8 1-404)
chain: MENEYKRLVLLEGLECINKHQFNLFKSLMVKDLNLEEDNQEKYTTFQIANMMVKKFPADAGLDRLINFCERVPTLKKRAEILKKERSEVTEETSLEINRQEASPATPTSTTSHMLASERGKTSTTQEETSTAQKRKGMSEEKTDVKKIKASGKADQPPCCEGPTATCQSPISQVSSSASSNIPSAKNQKSQPQNQNIPRGAVLHSEPLTVMVLTATDPFEYESPEHEVKNMFHATVATVSQYFHVKVFNIDLKEKFTKNNFITISNYFESKGILEINETSSVLEAAPKQMIEVPNCITRNANASPKICDIQKGTSGTVFYGVFTLHKKKVKTQNTSYEIKDGSGSIEVVGSGQWHNINCKEGDKLHLFCFHLKRERGQPKLVCGDHSFVKVTKAGKKKEASTVQ
B2: the binding result in experiment [3] is listed as “binds”.
